Literature values as cited in PMC9545004, “Transglutaminase 2 affinity and enzyme‐substrate intermediate stability as determining factors for T‐cell responses to gluten peptides in celiac disease” (European Journal of Immunology, 2022).

Settings: cited from earlier work; for concentration in duodenal aspirates: five fasting volunteers; for concentration in duodenal fluid: five subjects

| Compound | concentration in duodenal aspirates | concentration in duodenal fluid |
| --- | --- | --- |
| NCCCCNCCCN [spermidine] | 3.2 µM | 13.1 µM |
| NCCCNCCCCNCCCN [spermine] | 4.0 µM | 6.3 µM |
